# In US8703907B2 (Prolynx LLC, priority 2010, dated 2014):
# Experiment: general procedure: peptide synthesis; Fmoc-Phe-Rink amide-MBHA resin; TentaGel resin loaded with Fmoc-Glycine (dendrimers); DCC/HOBt; HBTU/HOBt/DIEA (dendrimers)
# Details: coupling step
row,Substance,step yield [%]
1,[Boc-Lys(Boc)]4[Lys]2Lys-DAB-DNP,48
2,[Boc-Lys(Tfa)]8[Lys]4[Lys]2Lys-DAB-DNP,50
